Assay results taken from patent US20130337050A1.
These are yes or no findings as the source states them, for the method shown. Some binding calls cover weakened binding; strength is not graded here.

How the values were obtained:
[1] = molecular target: GST-mTfR1 (GST-fused recombinant protein of the partial sequence 321-329 of mouse transferrin receptor 1) (mouse); experiment: Glutathione-Sepharose pull-down, western blotting for poliovirus (mixture 4-1)
[2] = molecular target: GST-mTfR1 (GST-fused recombinant protein of the partial sequence 321-329 of mouse transferrin receptor 1) (mouse); experiment: Glutathione-Sepharose pull-down, western blotting for poliovirus (mixture 4-7)
[3] = molecular target: GST-hTfR2 (GST-fused recombinant protein of the partial sequence 341-349 of human transferrin receptor 2) (human); experiment: Glutathione-Sepharose pull-down, western blotting for poliovirus (mixture 4-8)

Measured: binding

live poliovirus (Mahoney strain) (from UniProt P03300 580-881; P03300 70-341; P03300 342-579)
binds: all assays above
